Source: patent US5182262A, “Calmodulin binding peptide derivatives of non-erythroid alpha spectrin” (The United States of America as represented by the …, priority 1989, dated 1993)
Not every detail of the peptide structures is certain; ends, links or a residue may be inferred. Residues, ends and D or L forms follow the SMILES beside them.

Key:
[1] = target: calmodulin dependent cAMP-phosphodiesterase; assay: Calmodulin dependent cAMP-phosphodiesterase (cAMP-PDE) assay; assay type: biochemical; conditions: from inhibition of calmodulin dependent cAMP-PDE activity; read-out: apparent dissociation constant, KD
calmodulin [2] = target: T1, calmodulin (Homo sapiens, UniProt P0DP23); assay: Competition with biotinylated calmodulin probing of calmodulin binding proteins on nitrocellulose electroblots
calmodulin [3] = target: T1, calmodulin; assay: Fluorescence spectral assays of peptide tryptophan upon addition of calmodulin; assay type: binding
calmodulin [4] = target: T1, calmodulin; assay: Binding to calmodulin-sepharose/agarose affinity column, elution with EGTA; conditions: bound with 2 mM CaCl2, eluted with 5 mM EGTA

Compound: CC[C@H](C)[C@H](NC(=O)[C@H](CO)NC(=O)[C@H](CC(N)=O)NC(=O)[C@H](Cc1ccccc1)NC(=O)[C@@H](NC(=O)[C@H](C)NC(=O)[C@@H](NC(=O)[C@@H](NC(=O)[C@H](Cc1c[nH]cn1)NC(=O)[C@@H](NC(=O)[C@H](CCSC)NC(=O)[C@H](CC(C)C)NC(=O)[C@H](CCCNC(=N)N)NC(=O)[C@H](C)NC(=O)[C@H](CO)NC(=O)[C@H](CCCCN)NC(=O)[C@H](Cc1c[nH]c2ccccc12)NC(=O)[C@@H]1CCCN1C(=O)[C@H](CO)NC(=O)[C@H](C)NC(=O)[C@@H](NC(=O)[C@@H](N)CCCCN)[C@@H](C)O)C(C)C)[C@@H](C)O)C(C)C)[C@@H](C)O)C(=O)N[C@@H](CCCCN)C(=O)N[C@@H](CCC(=O)O)C(=O)O [24-mer] (H-KTASPWKSARLMVHTVATFNSIKE-OH)
- Kd [1]: 50 nM
- competition for binding with another calmodulin binding protein (Mr ~150 KDa) (calmodulin [2]; crude brain homogenate, FIG. 4 lane 2): not as apparent
- affinity for calmodulin, estimated KD (calmodulin [2]; estimated from concentrations of peptide and calmodulin used in blot competition (1 ug/ml biotinylated calmodulin)): < 10^-7
- inhibition of calmodulin binding to intact (240 KDa) and recombinant brain alpha-fodrin (calmodulin [2]; nitrocellulose blots, bovine brain lysate and recombinant spectrin E. coli lysate): potent inhibition
- fluorescence emission maximum (calmodulin [3]; 0.5 uM aqueous peptide without calmodulin, excitation 290 nm): about 365 nm
- acrylamide induced fluorescence quenching on calmodulin binding (calmodulin [3]; acrylamide as aqueous collisional probe): dramatic relief
- effect of EGTA on calmodulin dependent fluorescence enhancement and quenching behavior (calmodulin [3]; addition of the calcium chelator EGTA): reversed
- stoichiometry at saturation of binding (calmodulin [3]; fluorescence titration): 1 mole of calmodulin added per mole of peptide
- fluorescence yield enhancement (calmodulin [3]; upon addition of calmodulin): ~ 2 fold
- fluorescence emission wavelength max (blue shift) (calmodulin [3]; upon addition of calmodulin, excitation 290 nm): 335 nm
- calcium dependent binding to calmodulin (calmodulin [4]): bind calmodulin in a calcium dependent manner
